{"source": "the supplement of paper PMC11060735", "note": "Counter-ions that a name gives are not always drawn. ± gives the standard deviation of the averaged measurements. Over roughly 1,800 compounds, “GFP- (p16Ink4a-) cell count relative to negative-control wells” has its median near 0.99; the lowest 2% begin near 0.5. The list shows a part of the results.", "data": [{"system": "mouse p16Ink4a+/- lung fibroblasts (INKBRITE, bleomycin-injured)", "test": "GFP- (p16Ink4a-) cell count relative to negative-control wells (fold of vehicle); higher = more p16Ink4a- cells surviving", "settings": "1 µM; 3 days", "values": [{"smiles": "Clc1ccc(Nc2nnc(Cc3ccncc3)c3ccccc23)cc1", "note": "[Vatalanib]", "GFP-": 0.918}, {"smiles": "C=CC(=O)N1CCCC(n2nc(-c3ccc(Oc4ccccc4)cc3)c3c(N)ncnc32)C1", "note": "(centres undefined) [Ibrutinib]", "GFP-": 0.678}, {"smiles": "CS(=O)(=O)c1cccc(CNc2nc(Nc3ccc4c(c3)CCC(=O)N4)ncc2C(F)(F)F)c1", "GFP-": 0.745}, {"smiles": "CC(C)[C@@H](C)/C=C/[C@@H](C)[C@@H]1CC[C@H]2C3=CC=C4C[C@@H](O)CC[C@]4(C)[C@@H]3CC[C@@]21C", "note": "[Ergosterol]", "GFP-": 0.969}, {"smiles": "CC1(C)CCC[C@]2(C)[C@H]3CC(=O)O[C@]3(C)CC[C@@H]12", "note": "[Sclareolide]", "GFP-": 1.01}, {"smiles": "CC1(C)O[C@@H]2C[C@H]3[C@@H]4CCC5=CC(=O)CC[C@]5(C)[C@@]4(F)[C@@H](O)C[C@]3(C)[C@]2(C(=O)CCl)O1", "note": "[Halcinonide]", "GFP-": 1.02}, {"smiles": "C#CCN[C@@H]1CCc2ccccc21", "note": "[Rasagiline]", "GFP-": 1.02}, {"smiles": "Cc1ccccc1-n1c(Cn2nc(-c3cccc(O)c3)c3c(N)ncnc32)nc2cccc(C)c2c1=O", "GFP-": 0.646}, {"smiles": "CC1=C(CC(=O)O)c2cc(F)ccc2/C1=C\\c1ccc(S(C)=O)cc1", "note": "(centres undefined) [Sulindac]", "GFP-": 1.07}, {"smiles": "NC(=O)N1c2ccccc2CC(=O)c2ccccc21", "note": "[Oxcarbazepine, Trileptal]", "GFP-": 1.06}, {"smiles": "[K]", "note": "[Potassium Iodide]", "GFP-": 0.867}, {"smiles": "COC(=O)CCc1ccc(OCC(O)CNC(C)C)cc1", "note": "(centres undefined) [Esmolol, Esmolol Hydrochloride]", "GFP-": 1}, {"smiles": "NCCS", "note": "[Cysteamine]", "GFP-": 0.915}, {"smiles": "C[C@]12C=CC(=O)C=C1CC[C@H]1[C@@H]3C[C@@H](O)[C@](O)(C(=O)CO)[C@@]3(C)C[C@H](O)[C@@]12F", "note": "[Triamcinolone]", "GFP-": 0.986}, {"smiles": "CO/C(O)=C1\\C(C)=NC(C)=C(C(=O)O[C@@H]2CCCN(Cc3ccccc3)C2)[C@@H]1c1cccc([N+](=O)[O-])c1", "note": "[Benidipine]", "GFP-": 1.11}, {"smiles": "Cn1c([N+](=O)[O-])cnc1COC(N)=O", "note": "[Ronidazole]", "GFP-": 1.04}, {"smiles": "CCN1CCN(c2ccc(Nc3cc(N(C)C(=O)Nc4c(Cl)c(OC)cc(OC)c4Cl)ncn3)cc2)CC1", "GFP-": 1.04}, {"smiles": "NCC(=O)CCC(=O)O", "note": "[Aminolevulinic acid]", "GFP-": 1.01}, {"smiles": "Cc1ccc(C)c(OCCCC(C)(C)C(=O)O)c1", "note": "[Gemfibrozil]", "GFP-": 1.04}, {"smiles": "O=C(O)C[C@H](O)C[C@H](O)/C=C/c1c(C2CC2)nc2ccccc2c1-c1ccc(F)cc1", "note": "[Pitavastatin Calcium]", "GFP-": 0.836}, {"smiles": "C[C@@H](O)[C@H]1C(=O)N2C(C(=O)O)=C(S[C@@H]3CN[C@H](CNS(N)(=O)=O)C3)[C@H](C)[C@H]12", "note": "[Doripenem]", "GFP-": 1.07}, {"smiles": "Cn1cnc(N)c2ncnc1-2", "note": "[3-Methyladenine]", "GFP-": 0.988}, {"smiles": "C=CCNC(N)=S", "note": "[Allylthiourea]", "GFP-": 1.17}, {"smiles": "Nc1ccc(C(=O)NCC(=O)O)cc1", "note": "[Aminohippuric Acid]", "GFP-": 1.06}, {"smiles": "COc1cc(Nc2nc3ccccc3nc2NS(=O)(=O)c2ccc(NC(=O)c3ccc(C)c(OC)c3)cc2)cc(OC)c1", "GFP-": 0.961}, {"smiles": "COc1cc2c(cc1Cc1cccc(Cl)c1F)c(=O)c(C(=O)O)cn2[C@H](CO)C(C)C", "note": "[Elvitegravir]", "GFP-": 1.11}, {"smiles": "Cc1cnc(Nc2ccc(OCCN3CCCC3)cc2)nc1Nc1cccc(S(=O)(=O)NC(C)(C)C)c1", "GFP-": "0.924 ± 0.17"}, {"smiles": "NS(=O)(=O)Cc1noc2ccccc12", "note": "[Zonisamide]", "GFP-": 1.33}, {"smiles": "CCc1cc2c(cc1N1CCC(N3CCOCC3)CC1)C(C)(C)c1[nH]c3cc(C#N)ccc3c1C2=O", "note": "[Alectinib]", "GFP-": 1.08}, {"smiles": "Cc1ccc2nc(NCCN)c3ncc(C)n3c2c1", "GFP-": 1.01}, {"smiles": "COc1ccc2cc1Oc1ccc(cc1)C[C@H]1c3cc(c(OC)cc3CCN1C)Oc1c(OC)c(OC)cc3c1[C@H](C2)N(C)CC3", "note": "[Tetrandrine]", "GFP-": 0.963}, {"smiles": "CN(C)CCC(c1ccccc1)c1ccccn1", "note": "(centres undefined) [Pheniramine]", "GFP-": 0.968}, {"smiles": "C[N+]1(C)[C@@H]2C[C@@H](OC(=O)C(O)(c3cccs3)c3cccs3)C[C@H]1[C@@H]1O[C@@H]12", "note": "[Tiotropium]", "GFP-": 1.03}, {"smiles": "NC(=O)c1cnc(N[C@@H]2CCCC[C@H]2N)nc1Nc1cccc(-n2nccn2)c1", "GFP-": 0.883}, {"smiles": "O=C(Nc1cccc(Nc2ncc(Br)c(NCCc3c[nH]cn3)n2)c1)N1CCCC1", "GFP-": 1.11}, {"smiles": "CCCNC(C)C(=O)Nc1c(C)csc1C(=O)OC", "note": "(centres undefined) [Articaine]", "GFP-": 0.965}, {"smiles": "CC(C)(Sc1cc(C(C)(C)C)c(O)c(C(C)(C)C)c1)Sc1cc(C(C)(C)C)c(O)c(C(C)(C)C)c1", "note": "[Probucol]", "GFP-": 1.06}, {"smiles": "C#C[C@]1(O)CC[C@H]2[C@@H]3CCC4=CC(=O)CC[C@@H]4[C@H]3CC[C@@]21CC", "note": "[Levonorgestrel]", "GFP-": 1.05}, {"smiles": "CNCc1ccc(C)c(NC(=O)c2ccc(Nc3nc(-c4ccccc4)c4ccccc4n3)cc2)c1", "GFP-": 1.06}]}]}
